Results published in the supplement of paper PMC10849652.
The list shows a part of the results.

Amino acid sequences for entries named in this document (tags omitted). A change or cut given only in a name is not applied to a line headed by its entry.
UniProt P02724: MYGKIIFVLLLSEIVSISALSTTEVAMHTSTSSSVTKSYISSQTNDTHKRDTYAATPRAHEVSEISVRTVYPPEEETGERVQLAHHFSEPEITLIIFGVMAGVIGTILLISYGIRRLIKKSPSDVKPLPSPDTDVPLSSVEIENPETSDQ
UniProt Q9BX10: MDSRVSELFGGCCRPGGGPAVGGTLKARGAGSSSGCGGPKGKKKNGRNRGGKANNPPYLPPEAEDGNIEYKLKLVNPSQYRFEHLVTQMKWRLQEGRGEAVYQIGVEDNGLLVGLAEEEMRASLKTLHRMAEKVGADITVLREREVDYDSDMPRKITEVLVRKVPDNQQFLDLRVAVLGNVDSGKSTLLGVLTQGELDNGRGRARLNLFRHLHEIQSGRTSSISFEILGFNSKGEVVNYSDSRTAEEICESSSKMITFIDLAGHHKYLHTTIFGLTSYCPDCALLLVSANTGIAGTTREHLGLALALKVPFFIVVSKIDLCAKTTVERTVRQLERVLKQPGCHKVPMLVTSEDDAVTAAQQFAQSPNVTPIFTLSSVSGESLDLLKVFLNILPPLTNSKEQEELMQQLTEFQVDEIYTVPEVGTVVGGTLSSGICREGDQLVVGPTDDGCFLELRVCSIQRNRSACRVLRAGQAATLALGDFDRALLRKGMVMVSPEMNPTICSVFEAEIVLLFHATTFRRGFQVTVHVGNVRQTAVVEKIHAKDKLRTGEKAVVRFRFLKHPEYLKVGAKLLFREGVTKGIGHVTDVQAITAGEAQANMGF
UniProt O15488: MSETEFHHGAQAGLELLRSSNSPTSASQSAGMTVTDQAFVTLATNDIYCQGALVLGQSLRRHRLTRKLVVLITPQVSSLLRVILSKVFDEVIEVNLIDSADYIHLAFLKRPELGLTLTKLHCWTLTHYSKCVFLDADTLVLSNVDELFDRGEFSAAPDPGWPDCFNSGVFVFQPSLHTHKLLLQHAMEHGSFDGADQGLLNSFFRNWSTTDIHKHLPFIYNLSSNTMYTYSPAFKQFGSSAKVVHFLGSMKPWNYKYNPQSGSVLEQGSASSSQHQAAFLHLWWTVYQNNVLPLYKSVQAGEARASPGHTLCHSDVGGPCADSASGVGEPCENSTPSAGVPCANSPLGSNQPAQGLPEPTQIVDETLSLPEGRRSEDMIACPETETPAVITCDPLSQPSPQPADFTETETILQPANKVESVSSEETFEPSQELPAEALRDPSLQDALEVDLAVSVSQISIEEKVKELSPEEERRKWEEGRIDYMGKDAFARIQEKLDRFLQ
UniProt P28161: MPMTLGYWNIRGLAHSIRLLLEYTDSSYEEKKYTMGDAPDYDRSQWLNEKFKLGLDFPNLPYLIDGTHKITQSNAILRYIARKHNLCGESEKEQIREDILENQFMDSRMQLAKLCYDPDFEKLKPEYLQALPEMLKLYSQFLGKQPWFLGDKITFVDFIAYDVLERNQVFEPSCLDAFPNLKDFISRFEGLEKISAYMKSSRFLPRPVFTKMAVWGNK
UniProt Q8WW33: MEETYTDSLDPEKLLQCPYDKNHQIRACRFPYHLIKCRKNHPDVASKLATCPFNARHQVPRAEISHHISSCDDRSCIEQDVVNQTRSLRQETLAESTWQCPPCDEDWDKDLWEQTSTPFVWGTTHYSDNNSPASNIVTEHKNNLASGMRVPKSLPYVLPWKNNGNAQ
UniProt Q92522: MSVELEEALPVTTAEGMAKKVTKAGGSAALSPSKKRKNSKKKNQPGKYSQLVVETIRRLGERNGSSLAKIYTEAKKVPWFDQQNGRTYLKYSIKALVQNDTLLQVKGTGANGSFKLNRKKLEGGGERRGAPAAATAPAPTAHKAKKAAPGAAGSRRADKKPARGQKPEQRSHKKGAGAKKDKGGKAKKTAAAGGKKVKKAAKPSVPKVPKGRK
UniProt Q8N442: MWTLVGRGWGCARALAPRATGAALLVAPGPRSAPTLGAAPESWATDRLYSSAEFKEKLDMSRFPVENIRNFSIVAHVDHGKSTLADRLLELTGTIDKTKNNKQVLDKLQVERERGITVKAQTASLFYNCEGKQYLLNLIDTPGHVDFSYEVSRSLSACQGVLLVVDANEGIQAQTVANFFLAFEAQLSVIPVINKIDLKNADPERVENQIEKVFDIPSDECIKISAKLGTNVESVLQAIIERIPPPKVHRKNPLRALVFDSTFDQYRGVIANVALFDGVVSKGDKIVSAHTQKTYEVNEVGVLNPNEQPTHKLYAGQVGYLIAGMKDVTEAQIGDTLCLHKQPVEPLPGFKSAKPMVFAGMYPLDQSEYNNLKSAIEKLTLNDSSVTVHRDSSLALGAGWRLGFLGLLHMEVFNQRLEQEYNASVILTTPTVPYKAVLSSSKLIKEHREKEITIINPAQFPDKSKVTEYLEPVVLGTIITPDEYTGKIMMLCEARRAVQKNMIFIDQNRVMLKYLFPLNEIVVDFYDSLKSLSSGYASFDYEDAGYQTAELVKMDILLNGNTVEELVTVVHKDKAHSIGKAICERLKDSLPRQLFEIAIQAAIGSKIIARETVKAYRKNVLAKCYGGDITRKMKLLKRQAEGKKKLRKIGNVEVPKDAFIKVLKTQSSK
UniProt Q9Y5Q9: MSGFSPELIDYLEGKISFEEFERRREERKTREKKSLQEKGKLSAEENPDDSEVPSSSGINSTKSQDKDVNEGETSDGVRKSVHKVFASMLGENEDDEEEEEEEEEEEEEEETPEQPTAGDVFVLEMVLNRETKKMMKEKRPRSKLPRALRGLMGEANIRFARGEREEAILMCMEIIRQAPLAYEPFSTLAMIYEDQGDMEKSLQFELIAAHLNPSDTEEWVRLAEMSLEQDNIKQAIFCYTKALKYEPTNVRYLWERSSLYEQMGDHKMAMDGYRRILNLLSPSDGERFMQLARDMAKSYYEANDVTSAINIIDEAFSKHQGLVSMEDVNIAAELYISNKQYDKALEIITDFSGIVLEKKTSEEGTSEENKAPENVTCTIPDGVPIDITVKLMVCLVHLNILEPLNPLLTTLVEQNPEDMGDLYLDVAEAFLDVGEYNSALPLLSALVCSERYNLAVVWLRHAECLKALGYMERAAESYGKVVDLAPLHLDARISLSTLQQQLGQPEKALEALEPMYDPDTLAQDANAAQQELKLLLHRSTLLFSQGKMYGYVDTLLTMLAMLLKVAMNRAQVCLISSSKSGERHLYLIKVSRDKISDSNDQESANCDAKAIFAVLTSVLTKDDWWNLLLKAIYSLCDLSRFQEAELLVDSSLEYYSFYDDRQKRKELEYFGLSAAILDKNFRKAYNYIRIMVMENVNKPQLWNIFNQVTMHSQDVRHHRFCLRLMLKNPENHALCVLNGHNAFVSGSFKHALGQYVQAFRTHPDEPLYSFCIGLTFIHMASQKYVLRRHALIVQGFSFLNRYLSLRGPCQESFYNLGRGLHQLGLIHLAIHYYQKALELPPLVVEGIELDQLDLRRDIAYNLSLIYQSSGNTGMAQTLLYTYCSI
UniProt Q12849: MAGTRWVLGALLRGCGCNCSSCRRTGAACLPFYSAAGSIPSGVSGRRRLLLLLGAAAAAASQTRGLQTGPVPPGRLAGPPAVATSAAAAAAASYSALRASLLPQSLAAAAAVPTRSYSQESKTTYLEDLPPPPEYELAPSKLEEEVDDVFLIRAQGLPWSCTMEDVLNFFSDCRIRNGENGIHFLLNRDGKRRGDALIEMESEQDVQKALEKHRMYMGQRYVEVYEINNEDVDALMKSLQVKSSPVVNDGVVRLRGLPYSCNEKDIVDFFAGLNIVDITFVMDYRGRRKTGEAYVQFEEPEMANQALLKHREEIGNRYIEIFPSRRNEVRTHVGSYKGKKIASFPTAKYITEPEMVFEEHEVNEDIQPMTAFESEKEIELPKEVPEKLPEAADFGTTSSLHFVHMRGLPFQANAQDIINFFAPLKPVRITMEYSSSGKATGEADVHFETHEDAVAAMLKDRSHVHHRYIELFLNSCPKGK
UniProt P02042: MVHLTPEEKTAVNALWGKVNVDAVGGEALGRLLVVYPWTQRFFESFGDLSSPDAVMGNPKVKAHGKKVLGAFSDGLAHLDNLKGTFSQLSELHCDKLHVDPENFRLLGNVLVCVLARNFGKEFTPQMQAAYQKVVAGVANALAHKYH
UniProt Q92664: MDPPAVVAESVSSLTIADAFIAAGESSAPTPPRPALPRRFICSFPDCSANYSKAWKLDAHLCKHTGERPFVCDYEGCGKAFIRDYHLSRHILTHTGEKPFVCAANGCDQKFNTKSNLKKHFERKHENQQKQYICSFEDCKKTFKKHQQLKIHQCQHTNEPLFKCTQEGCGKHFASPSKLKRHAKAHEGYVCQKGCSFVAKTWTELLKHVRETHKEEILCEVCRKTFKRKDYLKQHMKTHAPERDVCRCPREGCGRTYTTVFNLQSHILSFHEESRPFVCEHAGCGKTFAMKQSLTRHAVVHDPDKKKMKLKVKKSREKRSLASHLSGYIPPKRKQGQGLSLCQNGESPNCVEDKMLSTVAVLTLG
UniProt Q9UBQ7: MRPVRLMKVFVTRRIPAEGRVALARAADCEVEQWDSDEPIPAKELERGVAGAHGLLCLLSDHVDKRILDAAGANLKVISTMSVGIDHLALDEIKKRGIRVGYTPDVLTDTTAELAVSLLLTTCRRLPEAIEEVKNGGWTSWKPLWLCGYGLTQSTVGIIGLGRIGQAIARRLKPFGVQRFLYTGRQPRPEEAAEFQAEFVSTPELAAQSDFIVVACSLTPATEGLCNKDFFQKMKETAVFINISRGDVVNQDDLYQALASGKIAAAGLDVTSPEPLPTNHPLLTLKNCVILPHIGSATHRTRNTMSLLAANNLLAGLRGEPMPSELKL
UniProt Q92769, whole entry, looked up: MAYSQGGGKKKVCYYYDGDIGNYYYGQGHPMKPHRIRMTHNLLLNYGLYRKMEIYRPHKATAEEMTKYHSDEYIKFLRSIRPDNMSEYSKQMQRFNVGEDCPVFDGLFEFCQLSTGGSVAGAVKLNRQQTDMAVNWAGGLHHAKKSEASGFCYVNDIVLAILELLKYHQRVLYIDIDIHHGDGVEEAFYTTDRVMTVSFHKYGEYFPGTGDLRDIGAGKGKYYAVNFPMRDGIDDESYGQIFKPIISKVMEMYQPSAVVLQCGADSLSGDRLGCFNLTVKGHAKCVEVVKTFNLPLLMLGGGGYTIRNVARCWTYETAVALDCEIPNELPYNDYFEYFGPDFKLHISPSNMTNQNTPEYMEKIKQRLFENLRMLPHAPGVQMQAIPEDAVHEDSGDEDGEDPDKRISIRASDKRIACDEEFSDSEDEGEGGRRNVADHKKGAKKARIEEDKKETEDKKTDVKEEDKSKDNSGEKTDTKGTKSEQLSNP
UniProt P35269, whole entry, looked up: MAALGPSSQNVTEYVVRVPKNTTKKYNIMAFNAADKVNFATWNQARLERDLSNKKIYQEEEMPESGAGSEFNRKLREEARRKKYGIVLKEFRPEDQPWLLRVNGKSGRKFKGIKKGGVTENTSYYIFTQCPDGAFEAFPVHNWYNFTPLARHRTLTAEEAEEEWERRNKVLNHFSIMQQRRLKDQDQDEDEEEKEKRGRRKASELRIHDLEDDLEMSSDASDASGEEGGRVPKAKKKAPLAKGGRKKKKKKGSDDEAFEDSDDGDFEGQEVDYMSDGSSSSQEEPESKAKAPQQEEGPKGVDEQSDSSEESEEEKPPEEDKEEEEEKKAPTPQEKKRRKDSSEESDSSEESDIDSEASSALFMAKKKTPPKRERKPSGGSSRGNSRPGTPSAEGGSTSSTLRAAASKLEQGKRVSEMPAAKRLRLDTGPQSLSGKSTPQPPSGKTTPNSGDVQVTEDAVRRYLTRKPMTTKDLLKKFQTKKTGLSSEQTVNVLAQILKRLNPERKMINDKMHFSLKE
UniProt P40939: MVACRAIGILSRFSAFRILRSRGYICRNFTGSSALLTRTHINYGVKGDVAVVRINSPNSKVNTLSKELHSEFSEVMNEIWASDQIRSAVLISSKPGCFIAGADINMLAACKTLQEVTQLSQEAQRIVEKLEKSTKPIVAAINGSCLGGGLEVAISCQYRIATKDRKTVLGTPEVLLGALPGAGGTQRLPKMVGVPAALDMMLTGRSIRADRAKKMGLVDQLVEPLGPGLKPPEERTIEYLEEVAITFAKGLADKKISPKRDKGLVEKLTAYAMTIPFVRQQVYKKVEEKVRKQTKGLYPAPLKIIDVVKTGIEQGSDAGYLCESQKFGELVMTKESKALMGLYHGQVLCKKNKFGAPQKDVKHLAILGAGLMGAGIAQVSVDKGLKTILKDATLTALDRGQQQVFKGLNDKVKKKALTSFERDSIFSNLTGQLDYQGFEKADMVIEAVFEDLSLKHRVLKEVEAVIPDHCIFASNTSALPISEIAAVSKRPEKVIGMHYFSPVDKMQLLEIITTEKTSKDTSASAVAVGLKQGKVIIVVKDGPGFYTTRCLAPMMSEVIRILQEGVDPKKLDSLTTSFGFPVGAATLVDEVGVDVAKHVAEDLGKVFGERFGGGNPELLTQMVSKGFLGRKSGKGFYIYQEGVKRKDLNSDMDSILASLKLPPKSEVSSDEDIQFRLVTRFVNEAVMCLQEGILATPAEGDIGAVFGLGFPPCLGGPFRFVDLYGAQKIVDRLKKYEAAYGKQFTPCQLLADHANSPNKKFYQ

Compound: C1=CC=C2C(=C1)C3=NNC4=CC=CC(=C43)C2=O
Test: log2 fold change, soluble protein after heating vs DMSO (PISA); higher = thermal stabilisation; K562 lysate, 10 uM; active = over 0.2 and 3.5 SD of the protein, either way, in both replicates (recomputed)
Summary of the method: (§1)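 Soluble protein was defined as the supernatant remaining after 21,000xg for 90 min, following pooling of heated aliquots and adjustment to 0.5% NP-40 at 4°C. Before that, crude K562 extract at 1 mg/mL protein in PBS pH 7.4 with 1 mM MgCl2 was treated with 10 μM compound for 30 min and heated for 3 min across 48°C-58°C. Quantification used TMTpro 16plex LC-MS/MS with channel sums equalised, and values are log-two fold changes in thermal stability relative to solvent controls from duplicates.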

log2 fold change, inactive:
GYPA (UniProt P02724) 0.048
GTPBP2 (UniProt Q9BX10) -0.032
HDAC7 isoform 5 (UniProt Q8WUI4) -0.044
H1-2 (UniProt P16403) 0.056
GRB10 (UniProt Q13322) 0.019
GSTM4 (UniProt Q03013) -0.025
HDHD5 (UniProt Q9BXW7) -0.027
GYG2 (UniProt O15488) 0.133
HAUS7 isoform 2 (UniProt Q99871) -0.006
HDGFL2 isoform 2 (UniProt Q7Z4V5) 0.01
GSTM2 (UniProt P28161) -0.012
GTSF1 (UniProt Q8WW33) 0.011
H1FX (UniProt Q92522) 0.071
GUF1 (UniProt Q8N442) 0.183
GTF3C6 (UniProt Q969F1) 0.046
GTF3C3 (UniProt Q9Y5Q9) -0.065
GSTM3 (UniProt P21266) 0.017
HAT1 (UniProt O14929) -0.003
GRSF1 (UniProt Q12849) -0.032
GSS (UniProt P48637) 0.037
HBD (UniProt P02042) 0.006
HDAC4 (UniProt P56524) -0.074
GTF3A (UniProt Q92664) 0.046
GTPBP4 (UniProt Q9BZE4) 0.054
GRHPR (UniProt Q9UBQ7) -0.014
HDAC2 (UniProt Q92769) -0.009
GSTZ1 (UniProt G3V4T6) 0.026
GTF2F1 (UniProt P35269) -0.005
HBE1 (UniProt P02100) 0.023
HADHA (UniProt P40939) 0.026
GTPBP1 (UniProt O00178) -0.01
GTF2H1 (UniProt P32780) -0.013

Compound: C1CCN(C1)C(=O)NC2=CC=CC(=C2)NC3=NC=C(C(=N3)NCCC4=CN=CN4)Br
Test: as above
Summary of the method: as §1

log2 fold change, inactive:
GYPA (UniProt P02724) -0.004
GTPBP2 (UniProt Q9BX10) -0.058
HDAC7 isoform 5 (UniProt Q8WUI4) -0.062
H1-2 (UniProt P16403) 0.047
GRB10 (UniProt Q13322) 0.073
GSTM4 (UniProt Q03013) -0.109
HDHD5 (UniProt Q9BXW7) -0.023
GYG2 (UniProt O15488) -0.071
HAUS7 isoform 2 (UniProt Q99871) -0.011
HDGFL2 isoform 2 (UniProt Q7Z4V5) 0
GSTM2 (UniProt P28161) -0.021
GTSF1 (UniProt Q8WW33) -0.015
H1FX (UniProt Q92522) 0.018
GUF1 (UniProt Q8N442) 0.054
GTF3C6 (UniProt Q969F1) -0.074
GTF3C3 (UniProt Q9Y5Q9) 0
GSTM3 (UniProt P21266) -0.046
HAT1 (UniProt O14929) -0.023
GRSF1 (UniProt Q12849) 0.004
GSS (UniProt P48637) 0.032
HBD (UniProt P02042) 0.021
HDAC4 (UniProt P56524) 0.018
GTF3A (UniProt Q92664) 0.03
GTPBP4 (UniProt Q9BZE4) 0.019
GRHPR (UniProt Q9UBQ7) 0.015
HDAC2 (UniProt Q92769) -0.013
GSTZ1 (UniProt G3V4T6) 0.017
GTF2F1 (UniProt P35269) -0.002
HBE1 (UniProt P02100) -0.002
HADHA (UniProt P40939) -0.067
GTPBP1 (UniProt O00178) -0.015
GTF2H1 (UniProt P32780) 0.029

Compound: C1CN(CCC1(CC2=CC=C(C=C2)Cl)N)C3=NC=NC4=C3C=CN4
Test: as above
Summary of the method: as §1

log2 fold change, inactive:
GYPA (UniProt P02724) 0.043
GTPBP2 (UniProt Q9BX10) -0.017
HDAC7 isoform 5 (UniProt Q8WUI4) -0.014
H1-2 (UniProt P16403) 0.013
GRB10 (UniProt Q13322) 0.054
GSTM4 (UniProt Q03013) -0.025
HDHD5 (UniProt Q9BXW7) -0.05
GYG2 (UniProt O15488) -0.017
HAUS7 isoform 2 (UniProt Q99871) 0.164
HDGFL2 isoform 2 (UniProt Q7Z4V5) 0.021
GSTM2 (UniProt P28161) -0.054
GTSF1 (UniProt Q8WW33) 0.009
H1FX (UniProt Q92522) -0.02
GUF1 (UniProt Q8N442) 0.031
GTF3C6 (UniProt Q969F1) 0.058
GTF3C3 (UniProt Q9Y5Q9) 0.031
GSTM3 (UniProt P21266) -0.018
HAT1 (UniProt O14929) 0.036
GRSF1 (UniProt Q12849) 0.034
GSS (UniProt P48637) 0.001
HBD (UniProt P02042) 0.061
HDAC4 (UniProt P56524) 0.028
GTF3A (UniProt Q92664) -0.07
GTPBP4 (UniProt Q9BZE4) -0.007
GRHPR (UniProt Q9UBQ7) 0.039
HDAC2 (UniProt Q92769) -0.001
GSTZ1 (UniProt G3V4T6) 0.064
GTF2F1 (UniProt P35269) 0.005
HBE1 (UniProt P02100) 0.046
HADHA (UniProt P40939) 0.04
GTPBP1 (UniProt O00178) 0.009
GTF2H1 (UniProt P32780) -0.005
